Source: the supplement of paper PMC12819154, “High-throughput peptide-centric local stability assay extends protein–ligand identification to membrane proteins, tissues and bacteria” (Nature Structural & Molecular Biology, 2025)
Some of the results follow. Most entries show no effect beyond the scatter of the controls.

The chains behind the UniProt entries cited, without tags or fusion partners. Where a name states a change or a piece, a line headed by the entry shows the natural chain unless it says otherwise.
UniProt Q495B1: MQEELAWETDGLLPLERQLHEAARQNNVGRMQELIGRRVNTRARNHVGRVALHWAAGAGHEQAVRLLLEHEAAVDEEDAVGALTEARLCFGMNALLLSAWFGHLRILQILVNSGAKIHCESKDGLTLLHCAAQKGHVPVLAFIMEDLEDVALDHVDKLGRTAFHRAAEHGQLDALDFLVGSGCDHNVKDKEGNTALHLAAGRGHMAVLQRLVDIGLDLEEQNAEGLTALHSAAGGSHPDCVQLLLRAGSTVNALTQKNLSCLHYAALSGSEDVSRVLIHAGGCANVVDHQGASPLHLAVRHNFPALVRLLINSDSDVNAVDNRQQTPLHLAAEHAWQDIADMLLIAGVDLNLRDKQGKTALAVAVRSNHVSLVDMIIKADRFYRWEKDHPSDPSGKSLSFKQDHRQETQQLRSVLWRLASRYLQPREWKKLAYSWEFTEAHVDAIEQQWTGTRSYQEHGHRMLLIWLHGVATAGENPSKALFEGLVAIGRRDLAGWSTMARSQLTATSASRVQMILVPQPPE
UniProt Q15334: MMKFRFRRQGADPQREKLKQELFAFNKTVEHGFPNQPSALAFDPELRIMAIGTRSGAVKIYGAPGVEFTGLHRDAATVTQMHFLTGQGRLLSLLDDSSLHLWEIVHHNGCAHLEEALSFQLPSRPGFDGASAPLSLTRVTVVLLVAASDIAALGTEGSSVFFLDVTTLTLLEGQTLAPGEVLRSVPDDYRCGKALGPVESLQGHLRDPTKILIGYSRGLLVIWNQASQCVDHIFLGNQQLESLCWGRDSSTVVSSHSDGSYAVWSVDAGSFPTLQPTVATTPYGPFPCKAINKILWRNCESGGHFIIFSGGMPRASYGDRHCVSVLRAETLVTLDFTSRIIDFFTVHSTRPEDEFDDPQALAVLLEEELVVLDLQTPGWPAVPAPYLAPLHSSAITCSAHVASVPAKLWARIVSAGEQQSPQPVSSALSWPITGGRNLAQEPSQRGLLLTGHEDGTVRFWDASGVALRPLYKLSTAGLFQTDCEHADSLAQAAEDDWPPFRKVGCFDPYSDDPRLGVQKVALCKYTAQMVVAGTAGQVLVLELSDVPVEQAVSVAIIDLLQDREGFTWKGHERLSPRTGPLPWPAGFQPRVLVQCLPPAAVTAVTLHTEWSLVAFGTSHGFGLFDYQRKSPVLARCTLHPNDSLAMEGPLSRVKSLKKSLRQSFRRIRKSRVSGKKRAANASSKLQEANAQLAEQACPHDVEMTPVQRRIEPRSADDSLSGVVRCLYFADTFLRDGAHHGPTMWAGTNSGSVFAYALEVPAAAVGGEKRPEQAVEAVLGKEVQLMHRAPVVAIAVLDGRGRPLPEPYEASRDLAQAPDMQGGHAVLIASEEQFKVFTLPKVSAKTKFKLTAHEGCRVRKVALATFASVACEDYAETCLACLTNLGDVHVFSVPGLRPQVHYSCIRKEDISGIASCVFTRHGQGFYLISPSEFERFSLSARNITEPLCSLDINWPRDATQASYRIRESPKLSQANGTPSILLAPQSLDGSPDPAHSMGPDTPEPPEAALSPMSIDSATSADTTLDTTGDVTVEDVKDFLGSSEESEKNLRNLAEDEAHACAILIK
UniProt Q3YEC7: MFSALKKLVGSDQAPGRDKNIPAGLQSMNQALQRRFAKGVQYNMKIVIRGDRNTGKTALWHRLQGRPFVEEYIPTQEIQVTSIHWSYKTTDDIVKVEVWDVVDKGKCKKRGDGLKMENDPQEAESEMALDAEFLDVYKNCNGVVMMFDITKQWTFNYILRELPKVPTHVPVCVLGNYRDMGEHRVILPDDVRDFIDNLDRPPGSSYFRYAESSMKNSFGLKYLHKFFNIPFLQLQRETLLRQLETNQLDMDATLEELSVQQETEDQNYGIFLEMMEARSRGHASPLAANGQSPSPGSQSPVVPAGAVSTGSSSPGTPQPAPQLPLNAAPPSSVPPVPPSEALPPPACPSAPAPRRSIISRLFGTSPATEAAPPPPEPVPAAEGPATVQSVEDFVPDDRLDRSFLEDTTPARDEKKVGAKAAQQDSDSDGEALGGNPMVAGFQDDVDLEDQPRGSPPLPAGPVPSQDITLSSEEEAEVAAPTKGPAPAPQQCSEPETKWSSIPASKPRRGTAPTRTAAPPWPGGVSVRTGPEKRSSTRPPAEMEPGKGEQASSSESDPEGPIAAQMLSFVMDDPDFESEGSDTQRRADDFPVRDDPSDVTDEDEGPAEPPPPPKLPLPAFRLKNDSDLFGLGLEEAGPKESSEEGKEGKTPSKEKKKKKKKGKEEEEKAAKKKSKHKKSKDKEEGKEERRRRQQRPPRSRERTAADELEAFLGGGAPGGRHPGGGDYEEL
UniProt Q15059, whole entry, looked up: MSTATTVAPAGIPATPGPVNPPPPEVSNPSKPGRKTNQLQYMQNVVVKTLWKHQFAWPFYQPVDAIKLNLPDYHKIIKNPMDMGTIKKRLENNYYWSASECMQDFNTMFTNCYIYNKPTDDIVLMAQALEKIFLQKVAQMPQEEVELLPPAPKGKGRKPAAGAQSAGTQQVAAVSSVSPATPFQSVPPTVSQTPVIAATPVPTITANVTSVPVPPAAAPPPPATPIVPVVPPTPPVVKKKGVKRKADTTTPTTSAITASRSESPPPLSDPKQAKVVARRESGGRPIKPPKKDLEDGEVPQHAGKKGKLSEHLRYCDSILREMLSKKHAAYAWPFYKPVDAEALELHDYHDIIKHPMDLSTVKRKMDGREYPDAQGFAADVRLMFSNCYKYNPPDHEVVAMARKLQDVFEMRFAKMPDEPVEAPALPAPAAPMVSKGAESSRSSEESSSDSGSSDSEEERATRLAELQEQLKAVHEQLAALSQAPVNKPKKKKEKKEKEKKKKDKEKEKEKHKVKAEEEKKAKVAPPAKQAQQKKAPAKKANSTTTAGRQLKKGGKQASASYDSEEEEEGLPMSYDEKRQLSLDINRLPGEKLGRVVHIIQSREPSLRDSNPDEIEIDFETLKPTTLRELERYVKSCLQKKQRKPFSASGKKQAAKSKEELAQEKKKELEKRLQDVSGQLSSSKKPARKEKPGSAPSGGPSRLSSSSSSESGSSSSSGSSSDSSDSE
UniProt Q15904, whole entry: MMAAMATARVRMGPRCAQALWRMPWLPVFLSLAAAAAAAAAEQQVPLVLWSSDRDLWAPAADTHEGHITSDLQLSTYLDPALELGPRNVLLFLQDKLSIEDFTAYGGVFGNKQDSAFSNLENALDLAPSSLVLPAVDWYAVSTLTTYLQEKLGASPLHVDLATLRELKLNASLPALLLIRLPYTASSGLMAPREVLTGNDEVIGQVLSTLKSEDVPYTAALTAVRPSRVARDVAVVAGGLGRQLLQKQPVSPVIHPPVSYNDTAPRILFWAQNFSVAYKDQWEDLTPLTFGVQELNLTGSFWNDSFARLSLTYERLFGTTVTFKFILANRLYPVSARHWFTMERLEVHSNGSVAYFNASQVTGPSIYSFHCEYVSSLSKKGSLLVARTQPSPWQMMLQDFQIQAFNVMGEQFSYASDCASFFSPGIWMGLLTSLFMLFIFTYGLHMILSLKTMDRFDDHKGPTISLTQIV
UniProt Q32NC0: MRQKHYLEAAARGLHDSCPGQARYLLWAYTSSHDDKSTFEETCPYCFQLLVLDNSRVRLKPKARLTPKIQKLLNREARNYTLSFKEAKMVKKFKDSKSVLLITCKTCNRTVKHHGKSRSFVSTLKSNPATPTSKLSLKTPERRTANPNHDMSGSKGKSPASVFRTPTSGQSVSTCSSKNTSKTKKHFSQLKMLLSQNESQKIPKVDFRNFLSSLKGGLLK
UniProt Q15833: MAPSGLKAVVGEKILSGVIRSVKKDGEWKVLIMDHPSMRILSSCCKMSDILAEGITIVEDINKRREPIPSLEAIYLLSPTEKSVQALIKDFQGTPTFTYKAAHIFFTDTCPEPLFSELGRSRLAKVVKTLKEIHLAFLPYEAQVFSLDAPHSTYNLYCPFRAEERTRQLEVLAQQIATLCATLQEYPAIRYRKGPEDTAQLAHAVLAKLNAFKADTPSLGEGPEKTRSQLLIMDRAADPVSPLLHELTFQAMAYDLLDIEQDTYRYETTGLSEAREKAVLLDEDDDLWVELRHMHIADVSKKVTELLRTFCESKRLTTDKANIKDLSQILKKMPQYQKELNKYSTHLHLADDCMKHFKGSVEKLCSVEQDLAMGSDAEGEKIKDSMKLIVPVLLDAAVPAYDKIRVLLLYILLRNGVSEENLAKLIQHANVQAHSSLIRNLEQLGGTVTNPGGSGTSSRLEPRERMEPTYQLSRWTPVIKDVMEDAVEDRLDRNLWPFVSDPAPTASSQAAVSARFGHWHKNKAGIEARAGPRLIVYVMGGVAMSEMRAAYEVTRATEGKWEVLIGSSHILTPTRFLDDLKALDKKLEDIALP
UniProt Q3KRA9: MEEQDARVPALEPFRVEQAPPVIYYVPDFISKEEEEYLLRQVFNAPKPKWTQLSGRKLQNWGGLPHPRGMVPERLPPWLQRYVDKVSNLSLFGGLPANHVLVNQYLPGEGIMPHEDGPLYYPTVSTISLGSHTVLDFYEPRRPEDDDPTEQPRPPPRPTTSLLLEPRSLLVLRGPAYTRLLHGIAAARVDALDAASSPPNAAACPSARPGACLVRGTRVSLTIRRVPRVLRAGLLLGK
UniProt Q15642: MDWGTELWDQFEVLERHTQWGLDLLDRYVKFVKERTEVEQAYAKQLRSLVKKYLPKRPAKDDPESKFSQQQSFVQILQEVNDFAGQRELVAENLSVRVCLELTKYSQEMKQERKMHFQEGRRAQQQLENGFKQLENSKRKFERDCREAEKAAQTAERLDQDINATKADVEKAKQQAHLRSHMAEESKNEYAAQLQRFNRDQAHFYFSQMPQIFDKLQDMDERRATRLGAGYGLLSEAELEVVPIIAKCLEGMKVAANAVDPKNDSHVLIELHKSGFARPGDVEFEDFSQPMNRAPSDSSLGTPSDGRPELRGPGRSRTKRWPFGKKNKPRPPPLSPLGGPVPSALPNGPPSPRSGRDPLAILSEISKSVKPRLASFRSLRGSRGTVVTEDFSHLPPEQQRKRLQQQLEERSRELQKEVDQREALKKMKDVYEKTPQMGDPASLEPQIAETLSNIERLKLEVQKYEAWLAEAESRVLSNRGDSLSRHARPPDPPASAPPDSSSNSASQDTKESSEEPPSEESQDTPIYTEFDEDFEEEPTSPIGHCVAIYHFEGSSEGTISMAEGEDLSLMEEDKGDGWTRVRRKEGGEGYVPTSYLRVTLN
UniProt Q15054: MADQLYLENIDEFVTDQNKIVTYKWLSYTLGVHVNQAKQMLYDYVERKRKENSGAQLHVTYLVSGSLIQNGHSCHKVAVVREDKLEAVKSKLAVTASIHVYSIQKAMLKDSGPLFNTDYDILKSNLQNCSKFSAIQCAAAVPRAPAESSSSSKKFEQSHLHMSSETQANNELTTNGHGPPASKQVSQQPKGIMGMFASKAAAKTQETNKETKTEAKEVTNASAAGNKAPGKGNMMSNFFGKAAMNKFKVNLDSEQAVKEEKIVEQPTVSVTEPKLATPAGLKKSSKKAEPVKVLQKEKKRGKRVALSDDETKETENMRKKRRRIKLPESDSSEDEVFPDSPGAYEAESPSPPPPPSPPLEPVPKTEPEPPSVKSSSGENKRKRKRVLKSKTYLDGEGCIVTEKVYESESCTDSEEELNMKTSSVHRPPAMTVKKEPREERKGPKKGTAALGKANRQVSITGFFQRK

Compound: CN[C@@H]1C[C@H]2O[C@@](C)([C@@H]1OC)n1c3ccccc3c3c4c(c5c6ccccc6n2c5c31)C(=O)NC4 [staurosporine]
Assay: log2 fold change of tryptic peptide abundance, ligand vs vehicle (limited proteolysis) (log2 ratio); higher = more trypsin-susceptible (destabilized)
Conditions: ligand concentration: 20 uM; sample: K562 cleared lysate; digestion: 4 min, 22 C (HT-PELSA RT4min, Orbitrap Astral)

Target | log2 fold change
UniProt Q495B1 (peptide sequence: RVNTRAR, peptide start residue: 38) | 0.0817
LLGL1 (peptide sequence: CLYFADTFLR, peptide start residue: 725) (UniProt Q15334) | -0.182
UniProt Q3YEC7 (peptide sequence: MFSALKK, peptide start residue: 1) | 0.0798
BRD3 (peptide sequence: RKADTTTPTTSAITASR, peptide start residue: 244) (UniProt Q15059) | -0.433
ATP6AP1 (peptide sequence: SEDVPYTAALTAVRPSR, peptide start residue: 212) (UniProt Q15904) | 0.378
C18orf21 (peptide sequence: MLLSQNESQK, peptide start residue: 192) (UniProt Q32NC0) | -0.324
STXBP2 (peptide sequence: HMHIADVSKK, peptide start residue: 293) (UniProt Q15833) | 0.87
ALKBH6 (peptide sequence: GMVPERLPPWLQR, peptide start residue: 69) (UniProt Q3KRA9) | 0.198
TRIP10 (peptide sequence: LKLEVQKYEAWLAEAESR, peptide start residue: 457) (UniProt Q15642) | 0.257
POLD3 (peptide sequence: EVTNASAAGNKAPGK, peptide start residue: 217) (UniProt Q15054) | -0.224

Quoted at random: two entries already listed
Target | log2 fold change
TRIP10 (peptide sequence: LKLEVQKYEAWLAEAESR, peptide start residue: 457) (UniProt Q15642) | 0.257
ATP6AP1 (peptide sequence: SEDVPYTAALTAVRPSR, peptide start residue: 212) (UniProt Q15904) | 0.378
